These are yes or no findings as the source states them, for the method shown. Some results given as binding are weak or reduced against the parent protein; the word gives no strength. For part of these data: Sequences can lack the tags named with a protein.
Key:
[1] = molecular target: T1, Acro-human BAFF-R Protein, his tag, ACRObiosystem BAFFR-H52H5 (human) (UniProt Q96RJ3); test: phage ELISA
T1 sequence (looked up): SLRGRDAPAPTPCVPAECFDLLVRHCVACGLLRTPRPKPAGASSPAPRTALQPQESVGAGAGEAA

[2] = molecular target: T2, SB-human BAFF-R Protein, his tag, Bio, SinoBiological 11027-H27H-B (human) (UniProt Q96RJ3); test: phage ELISA
T2 sequence (biotinylated, looked up): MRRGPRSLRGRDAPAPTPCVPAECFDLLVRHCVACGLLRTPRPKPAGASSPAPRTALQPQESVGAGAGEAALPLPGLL

[3] = molecular target: T3, BAFF-R on K562-BAFF-R cells (UniProt Q96RJ3); test: phage FACS on K562-BAFF-R cells
T3 sequence (looked up): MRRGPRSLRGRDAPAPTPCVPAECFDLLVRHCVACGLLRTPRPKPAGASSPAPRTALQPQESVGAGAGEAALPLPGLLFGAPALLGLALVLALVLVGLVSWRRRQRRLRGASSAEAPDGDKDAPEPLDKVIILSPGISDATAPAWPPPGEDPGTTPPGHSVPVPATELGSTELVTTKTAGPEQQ

[4] = molecular target: T4, Recombinant biotinylated Human BAFF-R Protein, Kactus BAF-HM40RB (human) (UniProt Q96RJ3); test: ELISA with purified IgG-form antibody
T4 sequence (biotinylated, looked up): T2 sequence (biotinylated, looked up)

[5] = molecular target: T5, BAFF-R on NALM6 cells (UniProt Q96RJ3); test: FACS on NALM6 cells with purified IgG-form antibody
T5 sequence (looked up): T3 sequence (looked up)

[6] = molecular target: T4, Recombinant biotinylated Human BAFF-R Protein, Kactus BAF-HM40RB (human); test: BLI, IgG on the sensor, antigen 100 to 6.25 nM

Measured: binding

B1: Clone 10 (phage-displayed scFv monoclonal) (scFv)
scFv: QSALTQPASVSGSPGQSITISCTGTSSDVGGYNYVSWYQQHPGKAPKLMIYEVSNRPSGVSNRFSGSKSGNTASLTISGLQAEDEADYYCSSYTSSSTYVFGTGTKVTVLGSRGGGGSGGGGSGGGGSLEQITLKESGPTLVKPTQTLTLTCTFSGFSLSTSGVGVGWIRQPPGKALEWLALIYWDDDKRYSPSLKSRLTITKDTSKNQVVLTMTNMDPVDTATYYCARYAGQYSGMWPWDYWGQGTLVTVSS
binds: [1] | [2] | [3]

B2: Clone 10 IgG (Fc fusion, not shown: a dimerising Fc or GST)
chain: B1 scFv
binds: [4] | [5] | [6]

Source: CN116041515A
